Test results taken from patent US20230312680A1.
These are yes or no findings as the source states them, for the method shown. Binding calls can cover weak binding; strength is not graded here. Ends that are not written are not given here.

Assays:
HLA-A*01:01 (human) = experiment: UV-ligand exchange, b2m ELISA; grade of exchange yield
HLA-A*24:02 (human) = experiment: as above
HLA-B*08:01 (human) = experiment: b2m dissociation at 37 C; grade of mean half-life

binding (HLA-A*01:01 (human))	binding (HLA-A*24:02 (human))	Binder	other results
binds	–	SPVTSVHGGTY [… (SEQ ID No 288)]	–
binds	–	NVTMKVVSVLY [… (SEQ ID No 292)]	–
binds	–	ETIRSVGYY [… (SEQ ID No 291)]	–
binds	–	DMDEEIEAEY [… (SEQ ID No 290)]	–
–	binds	SYFRGFTLI [… (SEQ ID No 82)]	–
–	binds	VFVSFSSLF [… (SEQ ID No 255)]	–
binds	–	RWEKTDLTY [… (SEQ ID No 289)]	–
binds	–	FVDNQYWRY [… (SEQ ID No 115)]	–
binds	–	VLLDEGAMLLY [… (SEQ ID No 116)]	–
–	binds	RYLAVVHAVF [… (SEQ ID No 246)]	–
binds	–	TVTGAEQIQY [… (SEQ ID No 112)]	–
–	binds	VYTPTLGTL [… (SEQ ID No 249)]	–
–	binds	LYQPRASEM [… (SEQ ID No 252)]	–
binds	–	VMEQSAGIMY [… (SEQ ID No 114)]	–
binds	–	QLDSNRLTY [… (SEQ ID No 113)]	–

More lines, now with the values behind:

Binder	binding (HLA-A*01:01 (human))	binding (HLA-A*24:02 (human))	other results
RYSDSVGRVSF [… (SEQ ID No 10)]	–	binds	–
KYVKVFHQF [… (SEQ ID No 19)]	–	binds	–
KYPVHIYRL [… (SEQ ID No 18)]	–	binds	–
RYGPVFTV [RYGPVFTV (SEQ ID No 77)]	–	binds	–
FYFPTPTVL [… (SEQ ID No 14)]	–	binds	–
VYNHTTRPL [… (SEQ ID No 81)]	–	binds	–
RFTTMLSTF [… (SEQ ID No 17)]	–	binds	–
VYTFLSSTL [… (SEQ ID No 13)]	–	binds	–
KLKERNREL [… (SEQ ID No 172)]	–	–	binding (HLA-B*08:01 (human)): binds
SYSDLHYGF [… (SEQ ID No 11)]	–	binds	–
LLDEGAMLLY [… (SEQ ID No 31)]	binds	–	–
VYHDDKQPTF [… (SEQ ID No 15)]	–	binds	–
IYSPQFSRL [… (SEQ ID No 16)]	–	binds	–
TAYMVSVAAF [… (SEQ ID No 80)]	–	binds	–
KYVAELSLL [… (SEQ ID No 76)]	–	binds	–
SFAPRSAVF [… (SEQ ID No 78)]	–	binds	–
SYNEHWNYL [… (SEQ ID No 79)]	–	binds	–
KYEKIFEML [… (SEQ ID No 12)]	–	binds	–
MYKMKKPI [MYKMKKPI (SEQ ID No 394)]	–	–	binding (HLA-B*08:01 (human)): binds
